In the RepoRT retention time repository (doi:10.1021/acs.analchem.1c00972):

Tests used:
[1] = RP, Waters ACQUITY UPLC BEH C18, 100 × 1 mm, 1.7 µm, 50 °C, 0.3 mL/min, estimated dead time 0.17 min; A: water + 10 mM ammonium bicarbonate; B: 10% water + 90% methanol + 10 mM ammonium bicarbonate; gradient (min/%B) 0/0 15/100 21/100 22/0 30/0; settings: stereoisomer not certain
[2] = RP, Waters ACQUITY UPLC BEH C18, 100 × 1 mm, 1.7 µm, 50 °C, 0.3 mL/min, estimated dead time 0.17 min; A: water + 0.1% formic acid + 20 mM ammonium formate; B: methanol + 0.1% formic acid + 20 mM ammonium formate; gradient (min/%B) 0/0 15/100 21/100 22/0 30/0; settings: stereoisomer not certain

`O=C(c1ccccc1)c1ccccc1` [Benzophenone] showed an LC retention time [1] of 14.4 min and an LC retention time [2] of 14.1 min.
